Source: the supplement of paper PMC10849652
Some of the results follow.

Protein sequences, listed by entry. Tags and fused reporters are not part of them. Lines headed by an entry give the natural chain unless they say otherwise; changes in a name come on top.
UniProt O75528: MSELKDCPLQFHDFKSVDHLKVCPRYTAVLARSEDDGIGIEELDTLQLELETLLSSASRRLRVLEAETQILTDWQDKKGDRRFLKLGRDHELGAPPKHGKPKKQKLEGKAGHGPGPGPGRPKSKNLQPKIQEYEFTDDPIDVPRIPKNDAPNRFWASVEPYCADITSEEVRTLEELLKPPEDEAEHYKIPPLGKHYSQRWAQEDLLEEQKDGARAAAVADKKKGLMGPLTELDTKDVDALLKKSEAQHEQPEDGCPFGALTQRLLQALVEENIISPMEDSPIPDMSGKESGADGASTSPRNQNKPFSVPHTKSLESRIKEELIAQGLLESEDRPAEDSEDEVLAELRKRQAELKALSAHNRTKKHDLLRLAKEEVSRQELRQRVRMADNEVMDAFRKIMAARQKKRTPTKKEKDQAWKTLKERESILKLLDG
UniProt Q15831: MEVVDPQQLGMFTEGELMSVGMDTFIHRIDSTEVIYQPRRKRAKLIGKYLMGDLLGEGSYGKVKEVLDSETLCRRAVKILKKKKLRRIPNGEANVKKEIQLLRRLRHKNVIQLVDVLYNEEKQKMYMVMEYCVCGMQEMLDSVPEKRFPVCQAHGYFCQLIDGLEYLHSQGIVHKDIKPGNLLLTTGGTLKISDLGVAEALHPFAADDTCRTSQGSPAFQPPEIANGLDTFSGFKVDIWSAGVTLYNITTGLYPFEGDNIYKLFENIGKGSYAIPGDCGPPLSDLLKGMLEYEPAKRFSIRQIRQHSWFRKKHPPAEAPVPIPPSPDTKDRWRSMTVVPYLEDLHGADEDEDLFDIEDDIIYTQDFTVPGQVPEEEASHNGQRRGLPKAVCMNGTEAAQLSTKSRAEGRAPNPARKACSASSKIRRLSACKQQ
UniProt Q7RTN6: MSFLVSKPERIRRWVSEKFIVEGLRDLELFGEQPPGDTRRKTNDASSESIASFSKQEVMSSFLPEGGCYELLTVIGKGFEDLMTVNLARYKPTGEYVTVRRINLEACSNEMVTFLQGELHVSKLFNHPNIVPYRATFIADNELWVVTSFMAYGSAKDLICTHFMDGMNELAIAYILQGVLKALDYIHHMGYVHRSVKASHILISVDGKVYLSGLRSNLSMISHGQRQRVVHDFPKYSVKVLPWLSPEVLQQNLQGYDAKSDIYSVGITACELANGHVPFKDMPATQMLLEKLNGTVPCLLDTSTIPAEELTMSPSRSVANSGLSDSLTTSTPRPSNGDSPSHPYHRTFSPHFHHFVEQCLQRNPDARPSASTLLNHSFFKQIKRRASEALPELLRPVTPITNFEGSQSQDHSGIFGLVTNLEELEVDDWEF
UniProt P21675, whole entry, looked up: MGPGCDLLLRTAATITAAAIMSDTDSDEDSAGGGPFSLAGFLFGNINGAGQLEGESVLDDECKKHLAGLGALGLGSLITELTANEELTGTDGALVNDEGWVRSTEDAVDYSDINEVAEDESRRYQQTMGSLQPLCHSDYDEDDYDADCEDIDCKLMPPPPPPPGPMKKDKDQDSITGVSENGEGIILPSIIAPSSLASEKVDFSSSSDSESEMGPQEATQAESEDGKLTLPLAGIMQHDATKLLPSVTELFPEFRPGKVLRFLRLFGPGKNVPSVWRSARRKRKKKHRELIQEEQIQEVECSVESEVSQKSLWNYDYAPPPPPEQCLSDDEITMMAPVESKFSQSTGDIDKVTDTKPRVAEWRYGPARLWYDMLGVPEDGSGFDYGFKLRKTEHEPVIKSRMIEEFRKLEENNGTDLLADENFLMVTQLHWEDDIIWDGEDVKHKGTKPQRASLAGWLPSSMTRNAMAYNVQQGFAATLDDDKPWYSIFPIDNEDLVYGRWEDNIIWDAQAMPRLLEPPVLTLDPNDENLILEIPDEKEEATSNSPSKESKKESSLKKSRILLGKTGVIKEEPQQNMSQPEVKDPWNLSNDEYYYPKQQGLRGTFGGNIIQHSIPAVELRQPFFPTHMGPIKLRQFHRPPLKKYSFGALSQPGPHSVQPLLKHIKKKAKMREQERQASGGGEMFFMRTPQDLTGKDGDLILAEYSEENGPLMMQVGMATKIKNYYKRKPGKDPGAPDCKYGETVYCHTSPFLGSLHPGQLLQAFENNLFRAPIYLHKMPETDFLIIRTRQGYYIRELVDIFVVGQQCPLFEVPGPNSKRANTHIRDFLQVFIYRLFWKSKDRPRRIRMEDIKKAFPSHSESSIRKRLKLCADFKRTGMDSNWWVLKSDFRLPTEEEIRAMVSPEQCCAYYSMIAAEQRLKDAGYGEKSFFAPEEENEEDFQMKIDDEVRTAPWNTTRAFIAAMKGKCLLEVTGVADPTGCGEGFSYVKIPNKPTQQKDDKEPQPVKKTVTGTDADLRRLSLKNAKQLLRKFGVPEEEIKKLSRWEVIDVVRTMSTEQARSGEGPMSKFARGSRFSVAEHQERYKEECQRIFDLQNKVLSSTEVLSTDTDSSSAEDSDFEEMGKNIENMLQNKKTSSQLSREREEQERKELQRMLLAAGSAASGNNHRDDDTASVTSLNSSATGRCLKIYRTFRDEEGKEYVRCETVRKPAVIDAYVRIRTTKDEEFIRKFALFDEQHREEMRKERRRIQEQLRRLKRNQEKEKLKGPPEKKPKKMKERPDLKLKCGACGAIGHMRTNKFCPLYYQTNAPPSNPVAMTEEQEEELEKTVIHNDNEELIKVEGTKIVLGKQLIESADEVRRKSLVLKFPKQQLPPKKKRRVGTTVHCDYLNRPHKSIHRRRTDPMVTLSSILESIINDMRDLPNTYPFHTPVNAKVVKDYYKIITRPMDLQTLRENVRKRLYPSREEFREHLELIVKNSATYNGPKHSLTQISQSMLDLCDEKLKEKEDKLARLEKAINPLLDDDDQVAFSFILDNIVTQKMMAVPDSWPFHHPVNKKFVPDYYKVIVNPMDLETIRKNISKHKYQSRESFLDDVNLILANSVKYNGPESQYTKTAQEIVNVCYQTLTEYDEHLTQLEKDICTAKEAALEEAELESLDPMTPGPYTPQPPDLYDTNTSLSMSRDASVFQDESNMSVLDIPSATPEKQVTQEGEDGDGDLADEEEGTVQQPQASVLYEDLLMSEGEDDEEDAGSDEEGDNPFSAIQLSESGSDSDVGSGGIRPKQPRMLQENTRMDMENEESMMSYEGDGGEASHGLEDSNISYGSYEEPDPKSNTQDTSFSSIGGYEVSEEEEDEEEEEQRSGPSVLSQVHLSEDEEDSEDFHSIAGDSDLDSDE
UniProt Q86TM6, whole entry, looked up: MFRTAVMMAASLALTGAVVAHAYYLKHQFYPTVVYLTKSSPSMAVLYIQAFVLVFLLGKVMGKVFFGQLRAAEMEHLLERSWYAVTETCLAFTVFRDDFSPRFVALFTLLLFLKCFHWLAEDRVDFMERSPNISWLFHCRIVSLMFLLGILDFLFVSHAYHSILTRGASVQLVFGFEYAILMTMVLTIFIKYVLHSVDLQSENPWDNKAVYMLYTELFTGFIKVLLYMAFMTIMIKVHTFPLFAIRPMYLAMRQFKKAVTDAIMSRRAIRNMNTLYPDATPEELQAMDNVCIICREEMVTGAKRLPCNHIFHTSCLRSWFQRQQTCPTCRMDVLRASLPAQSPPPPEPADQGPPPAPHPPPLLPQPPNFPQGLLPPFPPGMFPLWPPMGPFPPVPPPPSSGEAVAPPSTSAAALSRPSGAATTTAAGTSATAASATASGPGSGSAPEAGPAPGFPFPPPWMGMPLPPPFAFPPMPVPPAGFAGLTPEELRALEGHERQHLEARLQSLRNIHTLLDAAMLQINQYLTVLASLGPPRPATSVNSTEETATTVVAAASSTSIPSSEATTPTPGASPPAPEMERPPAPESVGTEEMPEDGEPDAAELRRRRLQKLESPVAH
UniProt Q7Z422: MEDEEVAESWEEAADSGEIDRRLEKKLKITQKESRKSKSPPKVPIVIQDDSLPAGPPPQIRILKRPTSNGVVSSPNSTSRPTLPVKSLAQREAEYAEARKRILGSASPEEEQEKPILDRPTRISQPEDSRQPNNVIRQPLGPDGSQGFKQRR
UniProt Q6ZWJ1: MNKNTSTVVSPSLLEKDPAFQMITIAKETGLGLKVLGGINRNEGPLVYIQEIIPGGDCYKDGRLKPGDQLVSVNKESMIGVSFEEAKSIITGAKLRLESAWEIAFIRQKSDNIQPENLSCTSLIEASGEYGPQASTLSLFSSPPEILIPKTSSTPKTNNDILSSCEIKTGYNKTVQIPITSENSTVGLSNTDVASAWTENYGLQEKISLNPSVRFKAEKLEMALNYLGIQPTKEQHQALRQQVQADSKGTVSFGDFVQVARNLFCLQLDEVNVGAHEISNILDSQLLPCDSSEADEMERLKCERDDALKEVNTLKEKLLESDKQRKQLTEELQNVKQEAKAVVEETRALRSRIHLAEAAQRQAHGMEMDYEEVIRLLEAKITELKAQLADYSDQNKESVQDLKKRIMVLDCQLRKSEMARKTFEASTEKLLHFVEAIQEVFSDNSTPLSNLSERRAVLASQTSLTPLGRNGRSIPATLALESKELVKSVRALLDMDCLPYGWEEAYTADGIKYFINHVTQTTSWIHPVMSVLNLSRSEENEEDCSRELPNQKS
UniProt O43760: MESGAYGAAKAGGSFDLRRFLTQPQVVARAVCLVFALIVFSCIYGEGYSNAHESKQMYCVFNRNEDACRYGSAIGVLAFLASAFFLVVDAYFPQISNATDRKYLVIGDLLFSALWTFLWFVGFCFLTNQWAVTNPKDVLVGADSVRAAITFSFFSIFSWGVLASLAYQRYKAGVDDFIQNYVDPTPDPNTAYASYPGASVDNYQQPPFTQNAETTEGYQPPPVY
UniProt Q92804: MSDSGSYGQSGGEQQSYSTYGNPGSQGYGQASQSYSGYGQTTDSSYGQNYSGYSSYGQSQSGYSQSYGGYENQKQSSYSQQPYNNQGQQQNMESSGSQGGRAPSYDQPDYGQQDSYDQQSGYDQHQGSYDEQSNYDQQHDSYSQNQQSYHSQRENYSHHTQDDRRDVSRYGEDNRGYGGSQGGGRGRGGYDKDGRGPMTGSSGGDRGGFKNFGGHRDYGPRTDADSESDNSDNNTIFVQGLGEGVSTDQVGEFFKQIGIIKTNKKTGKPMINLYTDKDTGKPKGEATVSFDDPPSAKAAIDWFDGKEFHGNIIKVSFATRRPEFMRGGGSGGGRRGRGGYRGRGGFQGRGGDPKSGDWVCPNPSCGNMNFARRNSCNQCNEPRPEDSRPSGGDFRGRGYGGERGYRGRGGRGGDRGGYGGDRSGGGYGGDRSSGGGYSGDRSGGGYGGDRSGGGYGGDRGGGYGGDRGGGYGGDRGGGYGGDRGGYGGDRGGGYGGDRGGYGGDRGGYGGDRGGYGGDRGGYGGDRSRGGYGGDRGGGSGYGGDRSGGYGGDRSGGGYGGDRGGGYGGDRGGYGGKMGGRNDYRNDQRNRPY
UniProt Q13043: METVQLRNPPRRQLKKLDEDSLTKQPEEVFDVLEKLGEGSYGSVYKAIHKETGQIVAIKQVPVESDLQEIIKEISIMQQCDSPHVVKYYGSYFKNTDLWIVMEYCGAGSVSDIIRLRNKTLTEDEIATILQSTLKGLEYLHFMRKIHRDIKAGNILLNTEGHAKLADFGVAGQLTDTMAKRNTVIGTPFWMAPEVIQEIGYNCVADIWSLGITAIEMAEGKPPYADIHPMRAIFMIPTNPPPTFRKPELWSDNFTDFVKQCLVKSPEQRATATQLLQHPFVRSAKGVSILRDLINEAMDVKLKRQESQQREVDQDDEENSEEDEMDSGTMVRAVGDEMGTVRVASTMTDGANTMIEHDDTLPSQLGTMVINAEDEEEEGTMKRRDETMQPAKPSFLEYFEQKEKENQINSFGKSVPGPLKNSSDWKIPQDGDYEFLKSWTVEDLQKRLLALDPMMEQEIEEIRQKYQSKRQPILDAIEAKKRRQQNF
UniProt Q9H169: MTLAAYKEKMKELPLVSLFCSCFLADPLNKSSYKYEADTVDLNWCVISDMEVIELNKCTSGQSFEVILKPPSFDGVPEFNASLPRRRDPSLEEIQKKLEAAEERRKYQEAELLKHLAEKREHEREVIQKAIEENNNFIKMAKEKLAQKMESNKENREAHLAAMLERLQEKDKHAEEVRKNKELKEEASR
UniProt P31948, whole entry, looked up: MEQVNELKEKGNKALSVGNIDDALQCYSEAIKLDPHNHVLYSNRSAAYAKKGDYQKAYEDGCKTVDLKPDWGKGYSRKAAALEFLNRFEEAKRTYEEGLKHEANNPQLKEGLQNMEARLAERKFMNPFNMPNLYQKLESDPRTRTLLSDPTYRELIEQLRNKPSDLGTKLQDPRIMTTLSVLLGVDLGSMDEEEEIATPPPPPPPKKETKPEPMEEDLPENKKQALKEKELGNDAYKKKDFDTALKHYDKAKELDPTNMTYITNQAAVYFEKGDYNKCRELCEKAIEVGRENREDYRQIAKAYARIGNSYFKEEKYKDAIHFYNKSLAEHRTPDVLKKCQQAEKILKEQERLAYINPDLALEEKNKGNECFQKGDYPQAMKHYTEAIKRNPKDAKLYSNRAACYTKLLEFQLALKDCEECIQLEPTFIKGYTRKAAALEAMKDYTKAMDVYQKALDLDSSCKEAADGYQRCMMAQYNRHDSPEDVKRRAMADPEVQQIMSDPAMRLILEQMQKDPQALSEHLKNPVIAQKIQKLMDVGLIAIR

How the values were obtained:
Assay in all cases: log2 fold change, soluble protein after heating vs DMSO (PISA); higher = thermal stabilisation; K562 lysate, 10 uM; active = over 0.2 and 3.5 SD of the protein, either way, in both replicates (recomputed)
nilotinib = compound: Cc1cn(-c2cc(NC(=O)c3ccc(C)c(Nc4nccc(-c5cccnc5)n4)c3)cc(C(F)(F)F)c2)cn1 [nilotinib]
Outline: (§1)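 Soluble protein was defined as the supernatant remaining after 21,000xg for 90 min, following pooling of heated aliquots and adjustment to 0.5% NP-40 at 4°C. Before that, crude K562 extract at 1 mg/mL protein in PBS pH 7.4 with 1 mM MgCl2 was treated with 10 μM compound for 30 min and heated for 3 min across 48°C-58°C. Quantification used TMTpro 16plex LC-MS/MS with channel sums equalised, and values are log-two fold changes in thermal stability relative to solvent controls from duplicates.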

[1] = compound: Cc1nc(Nc2n[nH]c3c2CN(C(=O)N[C@H](CN(C)C)c2ccccc2)C3(C)C)c2sccc2n1
Outline: as §1

dasatinib = compound: Cc1nc(Nc2ncc(C(=O)Nc3c(C)cccc3Cl)s2)cc(N2CCN(CCO)CC2)n1 [dasatinib]
Outline: as §1

[2] = compound: Cc1ncc(-c2ccnc(Nc3ccc(S(C)(=O)=O)cc3)n2)n1C(C)C
Outline: as §1

[3] = compound: Cn1cc(-c2ccc3c(c2)CCN3C(=O)Cc2cccc(C(F)(F)F)c2)c2c(N)ncnc21
Outline: as §1

quisinostat = compound: Cn1cc(CNCC2CCN(c3ncc(C(=O)NO)cn3)CC2)c2ccccc21 [quisinostat]
Outline: as §1

tipifarnib = compound: Cn1cncc1[C@@](N)(c1ccc(Cl)cc1)c1ccc2c(c1)c(-c1cccc(Cl)c1)cc(=O)n2C [tipifarnib]
Outline: as §1

[4] = compound: NC(=O)Nc1cc(-c2cccc(F)c2)sc1C(=O)N[C@H]1CCCNC1
Outline: as §1

[5] = compound: NC(=O)c1cnc(N[C@@H]2CCCC[C@@H]2N)nc1Nc1cccc(-n2nccn2)c1
Outline: as §1

[6] = compound: NC1(c2ccc(-c3nc4ccn5c(=O)[nH]nc5c4cc3-c3ccccc3)cc2)CCC1
Outline: as §1

[7] = compound: NCC(=O)Nc1ccc(-n2nc(C(F)(F)F)cc2-c2ccc3c(ccc4ccccc43)c2)cc1
Outline: as §1

vorinostat = compound: O=C(CCCCCCC(=O)Nc1ccccc1)NO [vorinostat]
Outline: as §1

silmitasertib = compound: O=C(O)c1ccc2c(c1)nc(Nc1cccc(Cl)c1)c1ccncc12 [silmitasertib]
Outline: as §1

[8] = compound: O=C1NC(=O)C(c2cnc3ccccn23)=C1c1cn2c3c(cc(F)cc13)CN(C(=O)N1CCCCC1)CC2
Outline: as §1

entospletinib = compound: c1cn2cc(-c3ccc4cn[nH]c4c3)nc(Nc3ccc(N4CCOCC4)cc3)c2n1 [entospletinib]
Outline: as §1

Target	log2 fold change (nilotinib)	log2 fold change [1]	log2 fold change (dasatinib)	log2 fold change [2]	log2 fold change [3]	log2 fold change (quisinostat)	log2 fold change (tipifarnib)	log2 fold change [4]	log2 fold change [5]	log2 fold change [6]	log2 fold change [7]	log2 fold change (vorinostat)	log2 fold change (silmitasertib)	log2 fold change [8]	log2 fold change (entospletinib)
SUMF1 (UniProt Q8NBK3)	inactive: 0.064	inactive: 0	inactive: 0.056	inactive: 0.001	inactive: 0.052	inactive: 0.054	inactive: -0.055	inactive: 0.06	inactive: 0.043	inactive: 0.001	inactive: -0.056	inactive: 0.026	inactive: -0.026	inactive: -0.037	inactive: -0.113
TADA3 (UniProt O75528)	inactive: -0.022	inactive: -0.036	inactive: -0.014	inactive: -0.023	inactive: 0.019	inactive: -0.037	inactive: -0.035	inactive: 0.006	inactive: 0.024	inactive: -0.044	inactive: 0.018	active: -0.289	inactive: -0.021	inactive: 0.034	inactive: 0.009
STK11 (UniProt Q15831)	inactive: -0.032	inactive: 0.009	inactive: -0.014	inactive: 0	inactive: 0.044	inactive: -0.035	inactive: -0.012	inactive: 0.044	inactive: 0.082	inactive: -0.027	inactive: 0.046	inactive: 0.189	inactive: -0.082	inactive: -0.009	inactive: -0.013
STRADA (UniProt Q7RTN6)	inactive: 0.063	inactive: -0.037	inactive: -0.017	inactive: -0.01	inactive: -0.127	inactive: -0.012	inactive: 0.061	inactive: 0.093	inactive: 0.032	inactive: 0.001	inactive: 0.04	inactive: 0.092	inactive: 0.043	inactive: 0.017	inactive: 0.015
TAF1 isoform 4 (UniProt P21675)	inactive: 0.021	inactive: -0.122	inactive: -0.043	inactive: -0.108	inactive: 0.118	inactive: -0.044	inactive: 0.275	inactive: 0.094	inactive: -0.051	inactive: 0.015	inactive: -0.048	inactive: -0.004	inactive: 0.02	inactive: 0.029	inactive: -0.043
SYVN1 (UniProt Q86TM6)	inactive: -0.015	inactive: 0.052	inactive: 0.031	inactive: -0.065	inactive: -0.01	inactive: -0.029	inactive: -0.054	inactive: -0.011	inactive: -0.002	inactive: -0.011	inactive: -0.059	inactive: 0.086	inactive: 0.034	inactive: -0.01	inactive: -0.009
SYNE2 isoform 2 (UniProt Q8WXH0)	inactive: 0.086	inactive: -0.034	inactive: 0.032	inactive: -0.002	inactive: -0.024	inactive: -0.176	inactive: 0.005	inactive: -0.043	inactive: -0.021	inactive: -0.091	inactive: 0.071	inactive: 0.088	inactive: -0.015	inactive: 0.051	inactive: -0.003
SZRD1 (UniProt Q7Z422)	inactive: -0.007	inactive: 0.029	inactive: 0.032	inactive: 0.04	inactive: -0.009	inactive: -0.084	inactive: -0.001	inactive: 0.001	inactive: -0.034	inactive: 0.019	inactive: -0.004	inactive: 0.034	inactive: -0.104	inactive: -0.011	inactive: 0.002
STXBP4 (UniProt Q6ZWJ1)	inactive: 0.049	inactive: 0.028	inactive: 0.001	inactive: 0.023	inactive: -0.005	inactive: -0.043	inactive: 0.021	inactive: -0.006	inactive: 0.008	inactive: -0.016	inactive: -0.019	inactive: -0.21	inactive: 0.033	inactive: 0.022	inactive: -0.018
STK11IP (UniProt Q8N1F8)	inactive: 0.065	inactive: 0.001	inactive: -0.053	inactive: -0.045	inactive: -0.016	inactive: -0.029	inactive: -0.033	inactive: -0.012	inactive: -0.014	inactive: 0.037	inactive: -0.017	active: -0.254	inactive: 0.025	inactive: 0.008	inactive: 0.024
SYNGR2 (UniProt O43760)	inactive: -0.009	inactive: 0.044	inactive: 0.001	inactive: 0.095	inactive: -0.02	inactive: -0.051	inactive: 0.033	inactive: -0.022	inactive: -0.082	inactive: -0.049	inactive: -0.255	inactive: 0.083	inactive: 0.013	inactive: 0.083	inactive: 0.02
TAF15 (UniProt Q92804)	inactive: -0.144	inactive: 0.025	inactive: 0.027	inactive: 0.034	inactive: -0.086	inactive: 0.031	inactive: 0.034	inactive: -0.012	inactive: -0.03	inactive: 0.038	inactive: -0.001	inactive: 0.1	inactive: -0.08	inactive: 0.01	inactive: 0.03
SUGT1 (UniProt Q9Y2Z0)	inactive: 0.015	inactive: 0.004	inactive: 0.005	inactive: 0.02	inactive: -0.007	inactive: 0.053	inactive: 0.025	inactive: -0.028	inactive: 0.004	inactive: -0.02	inactive: 0.029	inactive: 0.066	inactive: -0.002	inactive: -0.036	inactive: 0.004
STK26 (UniProt Q9P289)	inactive: -0.033	active: 0.25	inactive: 0.102	inactive: 0.044	inactive: 0.029	inactive: -0.035	inactive: -0.013	inactive: 0.104	inactive: 0.002	inactive: -0.008	inactive: -0.027	inactive: -0.032	inactive: 0.035	inactive: -0.045	inactive: -0.026
STK4 (UniProt Q13043)	inactive: -0.077	inactive: 0.343	inactive: 0.214	inactive: 0.177	inactive: 0.282	inactive: -0.105	inactive: -0.047	active: 0.585	inactive: 0.134	inactive: -0.016	inactive: 0.054	inactive: -0.134	inactive: 0.024	inactive: 0.041	inactive: 0.047
STMN4 isoform 2 (UniProt Q9H169)	inactive: 0.04	inactive: -0.055	inactive: 0.004	inactive: -0.007	inactive: 0.035	inactive: 0.144	inactive: 0.035	inactive: -0.075	inactive: 0.014	inactive: 0.072	inactive: -0.049	inactive: 0.055	inactive: 0.028	inactive: -0.144	inactive: -0.017
STRN4 isoform 3 (UniProt Q9NRL3)	inactive: 0.127	inactive: -0.052	inactive: -0.001	inactive: 0.048	inactive: 0.051	inactive: 0.036	inactive: 0.064	inactive: 0.013	inactive: -0.037	inactive: 0.036	inactive: 0.005	inactive: -0.009	inactive: 0.005	inactive: -0.008	inactive: -0.011
STXBP5 (UniProt Q5T5C0)	inactive: 0.031	inactive: 0.007	inactive: 0.006	inactive: 0.019	inactive: 0.004	inactive: -0.035	inactive: 0.031	inactive: 0.004	inactive: -0.015	inactive: -0.027	inactive: 0.029	inactive: 0.047	inactive: -0.037	inactive: 0.006	inactive: -0.004
SUGT1 isoform 2 (UniProt Q9Y2Z0)	inactive: -0.015	inactive: 0.025	inactive: 0.045	inactive: -0.052	inactive: -0.002	inactive: 0.167	inactive: -0.009	inactive: -0.083	inactive: 0.163	inactive: -0.048	inactive: -0.015	inactive: 0.095	inactive: -0.07	inactive: -0.022	inactive: 0.013
STIP1 isoform 2 (UniProt P31948)	inactive: 0.017	inactive: 0.001	inactive: 0.017	inactive: 0.004	inactive: 0.018	inactive: 0.075	inactive: 0.023	inactive: -0.026	inactive: -0.018	inactive: 0.038	inactive: -0.02	inactive: 0.13	inactive: 0.004	inactive: 0.007	inactive: 0.013

Quoted from the listing (six entries):
Target	log2 fold change (nilotinib)	log2 fold change [1]	log2 fold change (dasatinib)	log2 fold change [2]	log2 fold change [3]	log2 fold change (quisinostat)	log2 fold change (tipifarnib)	log2 fold change [4]	log2 fold change [5]	log2 fold change [6]	log2 fold change [7]	log2 fold change (vorinostat)	log2 fold change (silmitasertib)	log2 fold change [8]	log2 fold change (entospletinib)
TADA3 (UniProt O75528)	inactive: -0.022	inactive: -0.036	inactive: -0.014	inactive: -0.023	inactive: 0.019	inactive: -0.037	inactive: -0.035	inactive: 0.006	inactive: 0.024	inactive: -0.044	inactive: 0.018	active: -0.289	inactive: -0.021	inactive: 0.034	inactive: 0.009
STK11 (UniProt Q15831)	inactive: -0.032	inactive: 0.009	inactive: -0.014	inactive: 0	inactive: 0.044	inactive: -0.035	inactive: -0.012	inactive: 0.044	inactive: 0.082	inactive: -0.027	inactive: 0.046	inactive: 0.189	inactive: -0.082	inactive: -0.009	inactive: -0.013
STRADA (UniProt Q7RTN6)	inactive: 0.063	inactive: -0.037	inactive: -0.017	inactive: -0.01	inactive: -0.127	inactive: -0.012	inactive: 0.061	inactive: 0.093	inactive: 0.032	inactive: 0.001	inactive: 0.04	inactive: 0.092	inactive: 0.043	inactive: 0.017	inactive: 0.015
TAF1 isoform 4 (UniProt P21675)	inactive: 0.021	inactive: -0.122	inactive: -0.043	inactive: -0.108	inactive: 0.118	inactive: -0.044	inactive: 0.275	inactive: 0.094	inactive: -0.051	inactive: 0.015	inactive: -0.048	inactive: -0.004	inactive: 0.02	inactive: 0.029	inactive: -0.043
SYVN1 (UniProt Q86TM6)	inactive: -0.015	inactive: 0.052	inactive: 0.031	inactive: -0.065	inactive: -0.01	inactive: -0.029	inactive: -0.054	inactive: -0.011	inactive: -0.002	inactive: -0.011	inactive: -0.059	inactive: 0.086	inactive: 0.034	inactive: -0.01	inactive: -0.009
SYNE2 isoform 2 (UniProt Q8WXH0)	inactive: 0.086	inactive: -0.034	inactive: 0.032	inactive: -0.002	inactive: -0.024	inactive: -0.176	inactive: 0.005	inactive: -0.043	inactive: -0.021	inactive: -0.091	inactive: 0.071	inactive: 0.088	inactive: -0.015	inactive: 0.051	inactive: -0.003
